Reference: PubChem BioAssay AID1259276 (Sanger Institute, 2017)
Screen: 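Kinase knock-downs that reduce colorectal cancer cell viability alone or with anchor drugs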 (primary screen). System: human C2BBe1 colorectal cancer cells. Reagent: siRNA pool against human genes. Challenge: DMSO vehicle, or one anchor drug: BYL719 at 1 µM, cetuximab at 5 µg/ml, or trametinib at 10 nM; exposure length not stated. Measurement: 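Cell viability as a fraction of non-targeting control wells, mean of replicates, also as a control-based robust z-score, plus a synergy score for each anchor drug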. Reading the numbers: viability robust z-score, siRNA alone and viability vs control, siRNA alone: higher = more viable cells after knock-down. Hit rule: 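Called essential when knock-down alone gives a viability robust z-score below -3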. Meaning of the calls: active = essential (siRNA alone); inactive = no change (siRNA alone).
The deposit covers 794 reagents; this is a part drawn at random. 24 of them (3%) count as active. 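Calls come only from the siRNA-alone arm; drug synergy scores do not affect them.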 Viability is capped at 1. Further read-outs or replicates are left out here. Not stated in the record: the amount of reagent, the time to read-out.

Target gene | viability robust z-score, siRNA alone | viability vs control, siRNA alone | call
CDK7 | 0.472 | 1 | inactive
RBM10 | 0.472 | 1 | inactive
CSNK1G2 | -2.31 | 0.825 | inactive
PTK2 | -1.95 | 0.847 | inactive
CRKL | 0.472 | 1 | inactive
TTK | 0.472 | 1 | inactive
VRK2 | 0.472 | 1 | inactive
NME3 | 0.472 | 1 | inactive
DGKH | 0.472 | 1 | inactive
RFK | 0.472 | 1 | inactive
SF3B1 | -2.17 | 0.834 | inactive
TBCK | 0.472 | 1 | inactive
SHPK | 0.472 | 1 | inactive
STK32C | 0.305 | 0.989 | inactive
GRK5 | 0.472 | 1 | inactive
MAPK13 | 0.472 | 1 | inactive
RAF1 | 0.472 | 1 | inactive
HASPIN | 0.472 | 1 | inactive
INSR | 0.472 | 1 | inactive
CASK | 0.472 | 1 | inactive
